Data published in the supplement of paper PMC12823440, “Inhibitors supercharge kinase turnover through native proteolytic circuits” (Nature, 2025).
Counter-ions that a name gives are not always drawn. The list shows a part of the results. Hit calls seldom repeat between salt and free forms of one compound.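 Kinases were expressed as nanoluciferase fusions in K562 cells and luminescence was read every 4 h between 2 and 18 h as percent of control, DMSO set to 100% and a positive control to 0%. A time point counts as decreased when the signal drops significantly (2 sigma). The hit call is the authors' own, does not follow from the count of time points alone, and its rule is not shown.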

Sequences of proteins named here, by UniProt entry; tags and fusion partners are left off. A change or cut given only in a name is not applied to a line headed by its entry.
UniProt Q9BUB5: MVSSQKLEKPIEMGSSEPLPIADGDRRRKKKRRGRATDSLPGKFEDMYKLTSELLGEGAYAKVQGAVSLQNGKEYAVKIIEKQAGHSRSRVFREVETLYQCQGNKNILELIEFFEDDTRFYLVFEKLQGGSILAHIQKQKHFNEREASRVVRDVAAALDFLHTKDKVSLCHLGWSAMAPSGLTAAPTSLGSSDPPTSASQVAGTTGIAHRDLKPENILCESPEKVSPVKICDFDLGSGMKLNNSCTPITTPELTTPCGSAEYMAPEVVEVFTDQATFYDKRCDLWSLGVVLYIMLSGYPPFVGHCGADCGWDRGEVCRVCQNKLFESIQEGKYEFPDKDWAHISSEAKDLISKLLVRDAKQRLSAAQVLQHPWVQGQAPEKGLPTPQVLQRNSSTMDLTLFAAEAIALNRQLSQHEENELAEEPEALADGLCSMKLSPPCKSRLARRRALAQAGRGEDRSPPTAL
UniProt Q16620, whole entry, looked up: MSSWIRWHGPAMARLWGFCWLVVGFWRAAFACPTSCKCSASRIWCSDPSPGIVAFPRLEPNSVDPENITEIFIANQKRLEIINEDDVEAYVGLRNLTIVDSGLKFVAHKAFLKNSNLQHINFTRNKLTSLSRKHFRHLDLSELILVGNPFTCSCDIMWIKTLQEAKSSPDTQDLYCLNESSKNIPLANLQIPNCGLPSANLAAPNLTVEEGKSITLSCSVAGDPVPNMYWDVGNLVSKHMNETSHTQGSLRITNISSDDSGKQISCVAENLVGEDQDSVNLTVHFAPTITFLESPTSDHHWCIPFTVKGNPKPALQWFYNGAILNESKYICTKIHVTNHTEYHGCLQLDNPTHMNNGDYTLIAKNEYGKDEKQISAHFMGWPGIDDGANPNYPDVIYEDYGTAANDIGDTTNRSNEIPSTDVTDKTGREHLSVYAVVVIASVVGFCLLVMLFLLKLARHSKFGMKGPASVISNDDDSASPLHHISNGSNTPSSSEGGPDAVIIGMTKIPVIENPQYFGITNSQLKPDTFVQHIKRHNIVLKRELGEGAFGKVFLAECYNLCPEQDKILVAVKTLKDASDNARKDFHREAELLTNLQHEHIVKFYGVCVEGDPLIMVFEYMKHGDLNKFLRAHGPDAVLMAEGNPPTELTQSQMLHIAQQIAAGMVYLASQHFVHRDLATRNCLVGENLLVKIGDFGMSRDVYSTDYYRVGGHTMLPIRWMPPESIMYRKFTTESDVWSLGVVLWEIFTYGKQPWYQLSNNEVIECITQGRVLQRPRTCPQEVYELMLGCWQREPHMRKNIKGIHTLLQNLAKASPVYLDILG
UniProt Q15118, whole entry, looked up: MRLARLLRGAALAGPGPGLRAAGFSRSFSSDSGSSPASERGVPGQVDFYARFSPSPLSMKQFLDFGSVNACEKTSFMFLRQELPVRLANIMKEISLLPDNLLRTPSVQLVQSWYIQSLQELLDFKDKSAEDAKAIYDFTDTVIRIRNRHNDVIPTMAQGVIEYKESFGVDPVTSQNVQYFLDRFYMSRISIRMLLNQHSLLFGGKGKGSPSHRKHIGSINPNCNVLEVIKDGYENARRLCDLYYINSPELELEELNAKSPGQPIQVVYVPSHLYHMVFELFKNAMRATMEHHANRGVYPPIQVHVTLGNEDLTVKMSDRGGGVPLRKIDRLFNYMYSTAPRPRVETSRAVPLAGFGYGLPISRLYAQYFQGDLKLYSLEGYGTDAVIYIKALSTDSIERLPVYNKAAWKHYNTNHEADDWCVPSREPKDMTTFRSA
UniProt P42356, whole entry, looked up: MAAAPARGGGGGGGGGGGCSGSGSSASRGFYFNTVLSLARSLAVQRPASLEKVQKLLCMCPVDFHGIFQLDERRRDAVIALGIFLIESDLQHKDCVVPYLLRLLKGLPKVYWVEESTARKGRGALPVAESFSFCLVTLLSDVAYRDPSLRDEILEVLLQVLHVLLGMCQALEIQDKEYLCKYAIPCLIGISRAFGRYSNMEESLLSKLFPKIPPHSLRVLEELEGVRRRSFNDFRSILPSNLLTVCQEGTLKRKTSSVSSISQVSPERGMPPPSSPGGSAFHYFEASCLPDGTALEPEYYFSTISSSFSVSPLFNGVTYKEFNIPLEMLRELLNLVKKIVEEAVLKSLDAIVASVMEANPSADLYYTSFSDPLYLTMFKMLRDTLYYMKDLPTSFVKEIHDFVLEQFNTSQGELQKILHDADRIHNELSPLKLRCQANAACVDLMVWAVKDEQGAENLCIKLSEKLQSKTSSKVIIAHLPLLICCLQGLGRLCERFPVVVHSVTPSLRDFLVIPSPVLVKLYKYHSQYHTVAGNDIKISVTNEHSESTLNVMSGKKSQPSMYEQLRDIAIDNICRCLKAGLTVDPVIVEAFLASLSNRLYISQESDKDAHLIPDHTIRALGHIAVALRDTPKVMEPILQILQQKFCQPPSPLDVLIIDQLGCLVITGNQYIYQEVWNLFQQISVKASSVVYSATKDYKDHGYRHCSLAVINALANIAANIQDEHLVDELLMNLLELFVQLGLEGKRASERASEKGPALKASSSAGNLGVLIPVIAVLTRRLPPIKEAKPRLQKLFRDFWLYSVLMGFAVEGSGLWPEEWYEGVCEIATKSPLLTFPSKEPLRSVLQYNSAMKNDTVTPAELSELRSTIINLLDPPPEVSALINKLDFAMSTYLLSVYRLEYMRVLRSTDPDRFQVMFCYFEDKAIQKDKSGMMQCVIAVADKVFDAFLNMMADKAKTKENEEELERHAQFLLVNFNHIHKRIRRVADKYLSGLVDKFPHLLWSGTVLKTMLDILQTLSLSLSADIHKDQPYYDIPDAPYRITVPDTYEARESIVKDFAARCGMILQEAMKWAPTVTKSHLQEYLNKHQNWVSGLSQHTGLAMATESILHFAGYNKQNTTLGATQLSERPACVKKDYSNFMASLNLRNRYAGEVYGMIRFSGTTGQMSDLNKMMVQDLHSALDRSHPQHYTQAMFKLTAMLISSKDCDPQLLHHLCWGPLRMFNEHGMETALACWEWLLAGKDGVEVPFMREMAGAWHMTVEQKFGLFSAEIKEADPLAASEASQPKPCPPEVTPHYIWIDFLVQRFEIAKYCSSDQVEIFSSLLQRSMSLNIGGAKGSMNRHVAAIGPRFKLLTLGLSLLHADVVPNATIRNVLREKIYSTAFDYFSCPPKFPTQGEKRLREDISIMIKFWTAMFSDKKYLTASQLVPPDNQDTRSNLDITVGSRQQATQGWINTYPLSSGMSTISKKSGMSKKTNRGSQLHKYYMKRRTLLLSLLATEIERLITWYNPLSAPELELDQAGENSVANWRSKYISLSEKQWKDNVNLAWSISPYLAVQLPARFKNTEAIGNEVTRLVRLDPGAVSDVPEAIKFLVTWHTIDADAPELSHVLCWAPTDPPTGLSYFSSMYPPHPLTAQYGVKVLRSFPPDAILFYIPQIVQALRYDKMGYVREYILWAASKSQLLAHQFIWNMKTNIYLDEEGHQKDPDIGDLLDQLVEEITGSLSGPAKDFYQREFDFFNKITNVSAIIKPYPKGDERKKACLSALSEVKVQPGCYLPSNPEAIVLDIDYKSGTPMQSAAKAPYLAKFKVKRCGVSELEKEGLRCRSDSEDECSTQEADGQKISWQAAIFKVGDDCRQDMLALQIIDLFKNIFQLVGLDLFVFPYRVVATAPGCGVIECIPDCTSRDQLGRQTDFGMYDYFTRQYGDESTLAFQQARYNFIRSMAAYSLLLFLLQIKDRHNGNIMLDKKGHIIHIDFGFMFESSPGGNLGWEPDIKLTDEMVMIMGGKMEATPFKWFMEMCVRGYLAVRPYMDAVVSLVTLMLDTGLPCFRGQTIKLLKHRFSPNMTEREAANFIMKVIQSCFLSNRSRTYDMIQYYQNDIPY
UniProt Q05397, whole entry, looked up: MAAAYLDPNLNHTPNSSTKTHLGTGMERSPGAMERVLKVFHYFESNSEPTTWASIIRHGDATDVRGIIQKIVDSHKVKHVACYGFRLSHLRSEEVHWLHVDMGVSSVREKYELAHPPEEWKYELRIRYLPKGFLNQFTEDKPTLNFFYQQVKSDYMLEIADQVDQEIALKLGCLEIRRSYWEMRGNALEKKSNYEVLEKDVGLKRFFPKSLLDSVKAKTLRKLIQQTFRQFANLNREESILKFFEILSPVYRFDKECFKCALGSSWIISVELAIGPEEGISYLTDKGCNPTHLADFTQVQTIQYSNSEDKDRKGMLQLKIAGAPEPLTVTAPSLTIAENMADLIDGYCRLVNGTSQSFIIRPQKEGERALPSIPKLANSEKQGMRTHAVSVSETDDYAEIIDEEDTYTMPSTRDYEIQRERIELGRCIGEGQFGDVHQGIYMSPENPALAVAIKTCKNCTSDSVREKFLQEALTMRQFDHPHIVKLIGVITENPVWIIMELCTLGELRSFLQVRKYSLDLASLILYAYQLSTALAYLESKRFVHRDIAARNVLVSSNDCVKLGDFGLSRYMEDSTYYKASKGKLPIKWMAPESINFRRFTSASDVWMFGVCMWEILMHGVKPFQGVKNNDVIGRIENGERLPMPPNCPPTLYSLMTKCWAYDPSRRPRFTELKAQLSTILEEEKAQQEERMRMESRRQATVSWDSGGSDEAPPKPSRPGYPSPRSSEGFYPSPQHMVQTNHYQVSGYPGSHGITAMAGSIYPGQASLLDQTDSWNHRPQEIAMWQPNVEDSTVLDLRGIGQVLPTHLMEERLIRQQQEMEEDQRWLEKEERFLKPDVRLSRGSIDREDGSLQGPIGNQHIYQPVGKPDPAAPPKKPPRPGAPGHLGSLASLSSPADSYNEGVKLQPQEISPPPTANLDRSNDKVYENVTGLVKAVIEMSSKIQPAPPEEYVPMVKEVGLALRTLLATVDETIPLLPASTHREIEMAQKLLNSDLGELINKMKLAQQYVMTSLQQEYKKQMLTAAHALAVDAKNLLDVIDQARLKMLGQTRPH
UniProt Q14289, whole entry, looked up: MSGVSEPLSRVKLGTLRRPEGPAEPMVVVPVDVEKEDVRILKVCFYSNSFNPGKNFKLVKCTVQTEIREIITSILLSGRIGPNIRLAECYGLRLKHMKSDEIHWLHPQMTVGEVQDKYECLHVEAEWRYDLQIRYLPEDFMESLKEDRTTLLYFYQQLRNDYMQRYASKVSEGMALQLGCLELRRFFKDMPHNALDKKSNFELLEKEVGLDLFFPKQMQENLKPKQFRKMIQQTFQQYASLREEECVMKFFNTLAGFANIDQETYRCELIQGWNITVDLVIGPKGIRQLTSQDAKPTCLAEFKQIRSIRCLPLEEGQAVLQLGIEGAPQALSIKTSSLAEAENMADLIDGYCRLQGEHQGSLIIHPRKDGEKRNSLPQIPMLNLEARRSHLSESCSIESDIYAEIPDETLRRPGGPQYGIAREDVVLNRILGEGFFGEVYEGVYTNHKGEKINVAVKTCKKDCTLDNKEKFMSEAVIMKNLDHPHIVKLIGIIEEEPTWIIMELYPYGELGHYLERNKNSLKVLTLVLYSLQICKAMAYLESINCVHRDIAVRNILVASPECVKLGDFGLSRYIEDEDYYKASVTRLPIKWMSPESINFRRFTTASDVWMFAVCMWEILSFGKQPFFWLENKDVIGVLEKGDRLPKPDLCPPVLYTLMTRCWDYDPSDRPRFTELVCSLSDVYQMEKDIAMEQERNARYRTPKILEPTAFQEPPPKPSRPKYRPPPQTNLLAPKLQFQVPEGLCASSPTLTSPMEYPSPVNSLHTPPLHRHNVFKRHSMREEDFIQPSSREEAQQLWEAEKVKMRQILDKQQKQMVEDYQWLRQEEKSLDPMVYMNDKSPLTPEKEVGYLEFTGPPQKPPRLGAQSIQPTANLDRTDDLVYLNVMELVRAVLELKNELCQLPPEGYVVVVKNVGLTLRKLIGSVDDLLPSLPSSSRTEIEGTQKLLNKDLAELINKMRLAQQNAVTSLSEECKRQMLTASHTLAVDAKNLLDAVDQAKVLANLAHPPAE

Assays:
Test in all cases: kinase-Nluc reporter destabilization hit call (1 = scored as downregulated) (binary); higher = compound decreases kinase abundance
Settings in all cases: K562; 2-18 h
[1] = molecular target: MAPK1 (UniProt P28482)
[2] = molecular target: MAPK4 (UniProt P31152)
[3] = molecular target: MAPKAPK2 (UniProt P49137)
[4] = molecular target: MKNK1 (UniProt Q9BUB5)
[5] = molecular target: NTRK2 (UniProt Q16620)
[6] = molecular target: NTRK3 (UniProt Q16288)
[7] = molecular target: PAK4 (UniProt O96013)
[8] = molecular target: PBK (UniProt Q96KB5)
[9] = molecular target: PDGFRB (UniProt P09619)
[10] = molecular target: PDK1 (UniProt Q15118)
[11] = molecular target: PDPK1 (UniProt O15530)
[12] = molecular target: PIK4CA (UniProt P42356)
[13] = molecular target: PIK4CB (UniProt Q9UBF8)
[14] = molecular target: PLK1 (UniProt P53350)
[15] = molecular target: PRKAA1 (UniProt Q13131)
[16] = molecular target: PRKCA (UniProt P17252)
[17] = molecular target: PTK2 (UniProt Q05397)
[18] = molecular target: PTK2B (UniProt Q14289)
[19] = molecular target: RAF1 (UniProt P04049)
[20] = molecular target: RAF1_S257L (clone: RAF1_mut) (UniProt P04049)

Measured: kinase-Nluc reporter destabilization hit call

COc1ccc(CNc2nc(N(CCO)CCO)nc3c2ncn3C(C)C)cc1 (2.5 µM)
inactive: [1] 0 | [2] 0 | [3] 0 | [4] 0 | [5] 0 | [6] 0 | [7] 0 | [8] 0 | [9] 0 | [10] 0 | [11] 0 | [12] 0 | [13] 0 | [14] 0 | [15] 0 | [16] 0 | [17] 0 | [18] 0 | [19] 0 | [20] 0

CN(C)C(=O)c1ccc(S(=O)(=O)c2ccc(NC(=O)[C@@](C)(O)C(F)(F)F)c(Cl)c2)cc1 (10 µM)
inactive: [1] 0 | [2] 0 | [3] 0 | [4] 0 | [5] 0 | [6] 0 | [7] 0 | [8] 0 | [9] 0 | [10] 0 | [11] 0 | [12] 0 | [13] 0 | [14] 0 | [15] 0 | [16] 0 | [17] 0 | [18] 0 | [19] 0 | [20] 0

CCCCCCCC/C=C\CCCCCCCC(=O)NCC(=O)O [N-Oleoyl glycine] (10 µM)
active: [14] 1
inactive: [1] 0 | [2] 0 | [3] 0 | [4] 0 | [5] 0 | [6] 0 | [7] 0 | [8] 0 | [9] 0 | [10] 0 | [11] 0 | [12] 0 | [13] 0 | [15] 0 | [16] 0 | [17] 0 | [18] 0 | [19] 0 | [20] 0

CCCNC(=O)c1cn2ncnc(Nc3cc(C(=O)NC4CC4)ccc3C)c2c1C (10 µM)
inactive: [1] 0 | [2] 0 | [3] 0 | [4] 0 | [5] 0 | [6] 0 | [7] 0 | [8] 0 | [9] 0 | [10] 0 | [11] 0 | [12] 0 | [13] 0 | [14] 0 | [15] 0 | [16] 0 | [17] 0 | [18] 0 | [19] 0 | [20] 0

CCOC(=O)c1c2c3c(cccc3[nH]c1=O)C(=O)c1ccccc1-2 (10 µM)
inactive: [1] 0 | [2] 0 | [3] 0 | [4] 0 | [5] 0 | [6] 0 | [7] 0 | [8] 0 | [9] 0 | [10] 0 | [11] 0 | [12] 0 | [13] 0 | [14] 0 | [15] 0 | [16] 0 | [17] 0 | [18] 0 | [19] 0 | [20] 0

CC[C@H](C)[C@H](NC(=O)[C@H](CCC(=O)O)NC(=O)[C@H](CCCN=C(N)N)NC(=O)[C@H](CCCN=C(N)N)NC(=O)[C@@H](N)CCCCN)C(=O)N[C@@H](CC(C)C)C(=O)N[C@@H](CO)C(=O)N[C@@H](CCCN=C(N)N)C(=O)N[C@@H](CCCN=C(N)N)C(=O)N1CCC[C@H]1C(=O)N[C@@H](CO)C(=O)N[C@@H](Cc1ccc(O)cc1)C(=O)N[C@@H](CCCN=C(N)N)C(=O)O [CREBtide] (10 µM)
inactive: [1] 0 | [2] 0 | [3] 0 | [4] 0 | [5] 0 | [6] 0 | [7] 0 | [8] 0 | [9] 0 | [10] 0 | [11] 0 | [12] 0 | [13] 0 | [14] 0 | [15] 0 | [16] 0 | [17] 0 | [18] 0 | [19] 0 | [20] 0

NC(=O)c1ccc(-c2cnn3ccc(NCc4cccnc4)nc23)cc1 (2.5 µM)
inactive: [1] 0 | [2] 0 | [3] 0 | [4] 0 | [5] 0 | [6] 0 | [7] 0 | [8] 0 | [9] 0 | [10] 0 | [11] 0 | [12] 0 | [13] 0 | [14] 0 | [15] 0 | [16] 0 | [17] 0 | [18] 0 | [19] 0 | [20] 0

CN(CC(=O)N(Cc1ccc(C2CCCCC2)cc1)c1ccc(C(=O)O)c(O)c1)S(=O)(=O)c1c(F)c(F)c(F)c(F)c1F (2.5 µM)
inactive: [1] 0 | [2] 0 | [3] 0 | [4] 0 | [5] 0 | [6] 0 | [7] 0 | [8] 0 | [9] 0 | [10] 0 | [11] 0 | [12] 0 | [13] 0 | [14] 0 | [15] 0 | [16] 0 | [17] 0 | [18] 0 | [19] 0 | [20] 0

CCOc1c([C@H](C)n2nc(C)c3c(N)ncnc32)cc(Cl)c(F)c1[C@@H]1CNC(=O)C1 [Parsaclisib (hydrochloride)] (10 µM)
inactive: [1] 0 | [2] 0 | [3] 0 | [4] 0 | [5] 0 | [6] 0 | [7] 0 | [8] 0 | [9] 0 | [10] 0 | [11] 0 | [12] 0 | [13] 0 | [14] 0 | [15] 0 | [16] 0 | [17] 0 | [18] 0 | [19] 0 | [20] 0
